These are yes or no findings as the source states them, for the method shown. Binding seen in cells or lysates may run through a third protein. Some results given as binding are weak or reduced against the parent protein; the word gives no strength.
Key:
[1] = biological target: Myc-RNF114 (UniProt Q9Y508); experiment: co-IP; KYSE-150-DLEU1 cells co-transfected with the Flag-tagged and Myc-tagged constructs, treated with MG132; immunoprecipitation with anti-Flag (A) or anti-Myc (B) antibody, immunoblotting with anti-Myc or anti-Flag antibody; the text calls it 'pull-down assays'
[2] = biological target: Flag-tagged DYNLL1 (Dynein light chain LC8-type 1) (UniProt P63167); experiment: as above

Amino acid sequences for entries named in this document (tags omitted).
UniProt Q9Y508: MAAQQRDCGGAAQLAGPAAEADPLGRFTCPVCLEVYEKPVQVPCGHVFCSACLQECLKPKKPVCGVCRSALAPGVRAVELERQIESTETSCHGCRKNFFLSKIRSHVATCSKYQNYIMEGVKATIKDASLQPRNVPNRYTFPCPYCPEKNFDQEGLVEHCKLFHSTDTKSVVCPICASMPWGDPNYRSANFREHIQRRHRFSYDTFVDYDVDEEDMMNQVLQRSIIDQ
UniProt P63167: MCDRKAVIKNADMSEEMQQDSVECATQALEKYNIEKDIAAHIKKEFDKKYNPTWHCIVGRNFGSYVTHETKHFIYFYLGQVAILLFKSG

| binding [1] | binding [2] | Substance |
| --- | --- | --- |
| binds | – | Flag-tagged DYNLL1 (Dynein light chain LC8-type 1) (from UniProt P63167 1-89) |
| – | binds | Myc-RNF114 (from UniProt Q9Y508 1-228) (enzyme) |
